Results as given in the supplement of paper PMC6411743.
± gives the standard deviation of the averaged measurements. The list shows a part of the results, in another mix than the full data. Most entries show no effect beyond the scatter of the controls.

By UniProt entry, the sequences of proteins in these tests, tags left out. Where a name states a change or a piece, a line headed by the entry shows the natural chain unless it says otherwise.
UniProt P56381: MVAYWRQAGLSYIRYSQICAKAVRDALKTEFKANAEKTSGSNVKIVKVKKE
UniProt P83369: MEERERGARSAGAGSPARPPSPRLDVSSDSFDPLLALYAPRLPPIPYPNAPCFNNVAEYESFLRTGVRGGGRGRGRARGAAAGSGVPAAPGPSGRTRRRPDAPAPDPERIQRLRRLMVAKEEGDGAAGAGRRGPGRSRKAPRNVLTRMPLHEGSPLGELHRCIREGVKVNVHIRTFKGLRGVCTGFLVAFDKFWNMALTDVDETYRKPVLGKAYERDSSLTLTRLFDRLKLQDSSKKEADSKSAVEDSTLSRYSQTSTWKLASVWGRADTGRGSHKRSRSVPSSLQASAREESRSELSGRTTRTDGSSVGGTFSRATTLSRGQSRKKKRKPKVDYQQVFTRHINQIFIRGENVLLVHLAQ
UniProt P63092, whole entry, looked up: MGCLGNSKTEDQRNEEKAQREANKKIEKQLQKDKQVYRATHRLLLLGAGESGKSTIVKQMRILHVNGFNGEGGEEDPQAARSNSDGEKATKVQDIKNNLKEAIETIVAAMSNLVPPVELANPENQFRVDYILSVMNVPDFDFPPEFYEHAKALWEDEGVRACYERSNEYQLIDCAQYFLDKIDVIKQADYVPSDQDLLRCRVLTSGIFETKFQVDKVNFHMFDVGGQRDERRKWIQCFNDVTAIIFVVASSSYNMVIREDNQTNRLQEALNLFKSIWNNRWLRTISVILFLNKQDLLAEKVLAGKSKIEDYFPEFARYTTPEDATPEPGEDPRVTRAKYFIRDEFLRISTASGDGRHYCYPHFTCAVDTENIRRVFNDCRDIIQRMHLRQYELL
UniProt P54920: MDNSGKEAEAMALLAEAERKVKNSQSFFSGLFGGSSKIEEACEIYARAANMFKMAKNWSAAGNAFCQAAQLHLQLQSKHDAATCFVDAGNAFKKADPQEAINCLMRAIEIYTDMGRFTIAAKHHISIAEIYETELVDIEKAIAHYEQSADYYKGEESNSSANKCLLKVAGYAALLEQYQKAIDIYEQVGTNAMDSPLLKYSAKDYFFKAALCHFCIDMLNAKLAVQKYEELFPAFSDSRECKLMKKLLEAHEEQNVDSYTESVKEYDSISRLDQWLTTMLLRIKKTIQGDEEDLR
UniProt P54274: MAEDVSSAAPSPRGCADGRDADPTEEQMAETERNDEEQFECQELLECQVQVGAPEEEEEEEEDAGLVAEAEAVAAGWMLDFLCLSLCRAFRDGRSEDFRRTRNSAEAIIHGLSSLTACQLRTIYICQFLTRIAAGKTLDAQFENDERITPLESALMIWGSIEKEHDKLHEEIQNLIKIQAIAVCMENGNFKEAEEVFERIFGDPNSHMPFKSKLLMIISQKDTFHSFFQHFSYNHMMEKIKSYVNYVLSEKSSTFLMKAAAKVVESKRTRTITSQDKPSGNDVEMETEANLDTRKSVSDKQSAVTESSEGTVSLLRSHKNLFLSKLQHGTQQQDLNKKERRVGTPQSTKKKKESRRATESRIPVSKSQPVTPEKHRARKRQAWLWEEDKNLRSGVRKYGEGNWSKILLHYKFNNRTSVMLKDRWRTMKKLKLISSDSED
UniProt P56589: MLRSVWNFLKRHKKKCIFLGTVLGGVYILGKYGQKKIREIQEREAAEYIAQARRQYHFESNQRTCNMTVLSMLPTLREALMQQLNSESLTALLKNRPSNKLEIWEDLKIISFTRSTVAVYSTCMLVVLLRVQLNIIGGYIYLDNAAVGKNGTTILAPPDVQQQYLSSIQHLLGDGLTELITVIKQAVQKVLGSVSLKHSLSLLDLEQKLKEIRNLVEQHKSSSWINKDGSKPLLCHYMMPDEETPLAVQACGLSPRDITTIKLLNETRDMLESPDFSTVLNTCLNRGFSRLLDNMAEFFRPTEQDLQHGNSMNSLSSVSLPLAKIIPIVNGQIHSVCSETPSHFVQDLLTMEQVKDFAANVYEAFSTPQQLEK
UniProt P82909: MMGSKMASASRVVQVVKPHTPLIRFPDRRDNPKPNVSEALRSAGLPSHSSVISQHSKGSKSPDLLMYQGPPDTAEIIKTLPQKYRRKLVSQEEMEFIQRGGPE
UniProt P61586, whole entry: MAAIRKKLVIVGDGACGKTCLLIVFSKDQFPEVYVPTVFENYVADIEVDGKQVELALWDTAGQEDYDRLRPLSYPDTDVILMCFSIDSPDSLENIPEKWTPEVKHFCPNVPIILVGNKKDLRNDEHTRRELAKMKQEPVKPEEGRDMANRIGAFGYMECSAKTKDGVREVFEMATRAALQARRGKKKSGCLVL
UniProt P67870, whole entry: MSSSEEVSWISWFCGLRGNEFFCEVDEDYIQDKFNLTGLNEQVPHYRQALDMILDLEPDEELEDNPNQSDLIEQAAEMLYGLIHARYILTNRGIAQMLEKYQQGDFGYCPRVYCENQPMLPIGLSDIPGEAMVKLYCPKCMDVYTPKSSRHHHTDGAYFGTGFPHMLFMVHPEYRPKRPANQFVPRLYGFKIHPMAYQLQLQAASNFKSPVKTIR
UniProt P78536: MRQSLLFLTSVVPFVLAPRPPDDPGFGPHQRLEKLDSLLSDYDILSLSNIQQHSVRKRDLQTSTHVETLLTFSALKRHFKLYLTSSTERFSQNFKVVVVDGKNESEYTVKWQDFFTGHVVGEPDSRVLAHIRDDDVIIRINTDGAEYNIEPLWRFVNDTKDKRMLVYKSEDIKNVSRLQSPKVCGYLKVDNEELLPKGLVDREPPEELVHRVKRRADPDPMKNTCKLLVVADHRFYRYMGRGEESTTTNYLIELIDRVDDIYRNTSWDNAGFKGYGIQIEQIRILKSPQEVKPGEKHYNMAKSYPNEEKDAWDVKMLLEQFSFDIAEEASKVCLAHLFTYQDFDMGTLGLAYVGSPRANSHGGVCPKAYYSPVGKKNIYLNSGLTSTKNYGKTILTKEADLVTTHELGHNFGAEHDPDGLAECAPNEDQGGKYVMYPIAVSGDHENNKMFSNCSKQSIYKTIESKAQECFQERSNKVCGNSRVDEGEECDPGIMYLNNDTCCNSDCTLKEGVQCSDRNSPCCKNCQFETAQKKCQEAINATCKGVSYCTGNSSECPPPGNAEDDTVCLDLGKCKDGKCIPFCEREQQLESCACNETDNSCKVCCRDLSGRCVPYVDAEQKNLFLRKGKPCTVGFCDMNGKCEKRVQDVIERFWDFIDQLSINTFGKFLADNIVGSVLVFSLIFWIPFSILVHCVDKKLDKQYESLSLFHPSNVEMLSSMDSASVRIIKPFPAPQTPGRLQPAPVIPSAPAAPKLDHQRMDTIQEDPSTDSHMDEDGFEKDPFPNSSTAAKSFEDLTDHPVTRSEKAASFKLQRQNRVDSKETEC
UniProt P62937, whole entry, looked up: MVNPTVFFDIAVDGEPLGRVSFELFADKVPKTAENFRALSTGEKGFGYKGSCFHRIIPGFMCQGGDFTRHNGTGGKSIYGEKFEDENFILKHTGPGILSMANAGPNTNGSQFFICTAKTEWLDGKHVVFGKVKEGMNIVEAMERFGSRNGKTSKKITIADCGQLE
UniProt P61201: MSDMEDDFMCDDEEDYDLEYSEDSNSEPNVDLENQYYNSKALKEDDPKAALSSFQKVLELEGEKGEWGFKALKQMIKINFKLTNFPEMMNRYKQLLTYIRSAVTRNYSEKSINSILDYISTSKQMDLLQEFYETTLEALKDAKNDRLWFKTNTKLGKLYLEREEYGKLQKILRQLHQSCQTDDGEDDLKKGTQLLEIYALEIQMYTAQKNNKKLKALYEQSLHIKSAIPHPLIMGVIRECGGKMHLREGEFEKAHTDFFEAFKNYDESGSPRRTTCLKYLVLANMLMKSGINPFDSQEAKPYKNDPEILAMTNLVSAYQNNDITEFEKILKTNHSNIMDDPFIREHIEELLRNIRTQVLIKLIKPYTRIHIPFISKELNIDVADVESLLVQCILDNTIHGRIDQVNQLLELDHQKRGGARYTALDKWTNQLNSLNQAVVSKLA

Compound: Nc1ncnc2c1ncn2[C@@H]1O[C@H](COP(=O)(O)OP(=O)(O)OP(=O)(O)O)[C@@H](O)[C@H]1O [adenosine triphosphate]
Assay: NP40-soluble protein abundance relative to vehicle (solubility fold change) (ratio); higher = more soluble protein in presence of ATP
Method in brief: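 Across three independent experiments, values are fold changes against the detergent-processed vehicle for each replicate, based on vsn-normalised intensities. The samples were Jurkat crude lysate treated with eight concentrations (0.1 to 10 mM) for 10 min at room temperature and then 3 min at 37 °C. Lysate was solubilised with 0.8% NP40 and benzonase, ultracentrifuged, and the supernatant analysed by TMT-labelled LC-MS/MS.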

UniProt P56381
NP40-soluble protein abundance (concentration: 0.1mM): 1.08 ± 0.16 | NP40-soluble protein abundance (concentration: 0.5mM): 0.942 ± 0.16 | NP40-soluble protein abundance (concentration: 1mM): 2.11 ± 1.8 | NP40-soluble protein abundance (concentration: 2mM): 0.927 ± 0.037 | NP40-soluble protein abundance (concentration: 4mM): 0.827 ± 0.014 | NP40-soluble protein abundance (concentration: 6mM): 1.2 ± 0.39 | NP40-soluble protein abundance (concentration: 8mM): 0.93 ± 0.067 | NP40-soluble protein abundance (concentration: 10mM): 0.875 ± 0.046

LSM11 (UniProt P83369)
NP40-soluble protein abundance (concentration: 0.1mM): 1.01 ± 0.15 | NP40-soluble protein abundance (concentration: 0.5mM): 1.08 ± 0.1 | NP40-soluble protein abundance (concentration: 1mM): 1.32 ± 0.26 | NP40-soluble protein abundance (concentration: 2mM): 1.26 ± 0.15 | NP40-soluble protein abundance (concentration: 4mM): 1.4 ± 0.17 | NP40-soluble protein abundance (concentration: 6mM): 1.62 ± 0.32 | NP40-soluble protein abundance (concentration: 8mM): 1.46 ± 0.2 | NP40-soluble protein abundance (concentration: 10mM): 1.69 ± 0.4

UniProt P63092 and related entries
NP40-soluble protein abundance (concentration: 0.1mM): 1.02 ± 0.036 | NP40-soluble protein abundance (concentration: 0.5mM): 1.03 ± 0.049

UniProt P54920 and related entries
NP40-soluble protein abundance (concentration: 0.1mM): 0.946 ± 0.077 | NP40-soluble protein abundance (concentration: 0.5mM): 0.913 ± 0.075

MRPS25 (UniProt P82663)
NP40-soluble protein abundance (concentration: 0.1mM): 0.966 ± 0.036 | NP40-soluble protein abundance (concentration: 0.5mM): 1.06 ± 0.041 | NP40-soluble protein abundance (concentration: 1mM): 0.942 ± 0.092 | NP40-soluble protein abundance (concentration: 2mM): 0.951 ± 0.066 | NP40-soluble protein abundance (concentration: 4mM): 0.96 ± 0.043 | NP40-soluble protein abundance (concentration: 6mM): 0.881 ± 0.09 | NP40-soluble protein abundance (concentration: 8mM): 0.915 ± 0.081 | NP40-soluble protein abundance (concentration: 10mM): 0.928 ± 0.078

UniProt P54274 and related entries
NP40-soluble protein abundance (concentration: 0.1mM): 0.955 ± 0.17 | NP40-soluble protein abundance (concentration: 0.5mM): 1.02 ± 0.18 | NP40-soluble protein abundance (concentration: 1mM): 1.14 ± 0.12 | NP40-soluble protein abundance (concentration: 2mM): 1.27 ± 0.17 | NP40-soluble protein abundance (concentration: 4mM): 1.43 ± 0.17 | NP40-soluble protein abundance (concentration: 6mM): 1.69 ± 0.26 | NP40-soluble protein abundance (concentration: 8mM): 1.58 ± 0.25 | NP40-soluble protein abundance (concentration: 10mM): 1.88 ± 0.35

PEX3 (UniProt P56589)
NP40-soluble protein abundance (concentration: 0.1mM): 1.04 ± 0.07 | NP40-soluble protein abundance (concentration: 0.5mM): 1.02 ± 0.066

MRPS36 (UniProt P82909)
NP40-soluble protein abundance (concentration: 0.1mM): 0.94 ± 0.17 | NP40-soluble protein abundance (concentration: 0.5mM): 0.921 ± 0.13

RHOA (UniProt P61586)
NP40-soluble protein abundance (concentration: 0.1mM): 1 ± 0.046 | NP40-soluble protein abundance (concentration: 0.5mM): 1.04 ± 0.049 | NP40-soluble protein abundance (concentration: 1mM): 0.996 ± 0.14 | NP40-soluble protein abundance (concentration: 2mM): 1.01 ± 0.078 | NP40-soluble protein abundance (concentration: 4mM): 0.968 ± 0.06 | NP40-soluble protein abundance (concentration: 6mM): 1.09 ± 0.069 | NP40-soluble protein abundance (concentration: 8mM): 0.939 ± 0.023 | NP40-soluble protein abundance (concentration: 10mM): 0.944 ± 0.027

UniProt P67870 and related entries
NP40-soluble protein abundance (concentration: 0.1mM): 1.02 ± 0.056 | NP40-soluble protein abundance (concentration: 0.5mM): 1.006 ± 0.0087 | NP40-soluble protein abundance (concentration: 1mM): 0.972 ± 0.024 | NP40-soluble protein abundance (concentration: 2mM): 1 ± 0.021 | NP40-soluble protein abundance (concentration: 4mM): 1.013 ± 0.0063 | NP40-soluble protein abundance (concentration: 6mM): 1.05 ± 0.067 | NP40-soluble protein abundance (concentration: 8mM): 1.07 ± 0.019 | NP40-soluble protein abundance (concentration: 10mM): 1.04 ± 0.017

UniProt P78536 and related entries
NP40-soluble protein abundance (concentration: 0.1mM): 0.939 ± 0.057 | NP40-soluble protein abundance (concentration: 0.5mM): 0.839 ± 0.1

UniProt P62937 and related entries
NP40-soluble protein abundance (concentration: 0.1mM): 0.98 ± 0.12 | NP40-soluble protein abundance (concentration: 0.5mM): 1.01 ± 0.083 | NP40-soluble protein abundance (concentration: 1mM): 0.914 ± 0.063 | NP40-soluble protein abundance (concentration: 2mM): 1.02 ± 0.05 | NP40-soluble protein abundance (concentration: 4mM): 0.894 ± 0.091 | NP40-soluble protein abundance (concentration: 6mM): 0.992 ± 0.084 | NP40-soluble protein abundance (concentration: 8mM): 0.882 ± 0.11 | NP40-soluble protein abundance (concentration: 10mM): 0.962 ± 0.056

UniProt P61201 and related entries
NP40-soluble protein abundance (concentration: 0.1mM): 0.966 ± 0.038 | NP40-soluble protein abundance (concentration: 0.5mM): 0.988 ± 0.056 | NP40-soluble protein abundance (concentration: 1mM): 0.9548 ± 0.0092 | NP40-soluble protein abundance (concentration: 2mM): 0.945 ± 0.031 | NP40-soluble protein abundance (concentration: 4mM): 0.9178 ± 0.005 | NP40-soluble protein abundance (concentration: 6mM): 0.968 ± 0.03 | NP40-soluble protein abundance (concentration: 8mM): 0.912 ± 0.043 | NP40-soluble protein abundance (concentration: 10mM): 0.916 ± 0.026
